Experiment [1] has as its target T1, AnkG ANK repeats (R1-24, residues 38-855) (UniProt O70511).
T1 sequence: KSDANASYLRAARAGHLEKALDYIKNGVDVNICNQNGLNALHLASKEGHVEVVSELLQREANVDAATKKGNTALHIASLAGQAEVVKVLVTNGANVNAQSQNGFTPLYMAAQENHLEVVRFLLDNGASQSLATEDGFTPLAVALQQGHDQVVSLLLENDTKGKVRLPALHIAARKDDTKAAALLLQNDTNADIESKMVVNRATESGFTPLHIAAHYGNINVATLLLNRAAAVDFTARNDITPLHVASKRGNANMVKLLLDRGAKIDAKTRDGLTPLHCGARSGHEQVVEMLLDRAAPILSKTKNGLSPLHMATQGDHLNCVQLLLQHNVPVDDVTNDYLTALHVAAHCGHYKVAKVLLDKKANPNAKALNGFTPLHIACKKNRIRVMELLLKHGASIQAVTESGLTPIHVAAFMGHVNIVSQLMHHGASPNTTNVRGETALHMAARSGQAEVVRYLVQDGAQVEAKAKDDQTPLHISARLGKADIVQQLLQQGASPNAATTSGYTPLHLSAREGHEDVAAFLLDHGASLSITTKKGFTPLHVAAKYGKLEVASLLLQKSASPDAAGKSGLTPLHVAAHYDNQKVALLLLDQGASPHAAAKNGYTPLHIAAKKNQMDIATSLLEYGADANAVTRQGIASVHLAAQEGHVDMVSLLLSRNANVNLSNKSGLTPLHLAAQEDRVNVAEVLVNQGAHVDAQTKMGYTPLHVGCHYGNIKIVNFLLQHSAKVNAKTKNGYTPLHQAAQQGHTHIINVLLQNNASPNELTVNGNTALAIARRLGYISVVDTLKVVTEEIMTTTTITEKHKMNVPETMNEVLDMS
The experiment in a line: ITC. (In ITC the heat of successive injections is recorded.)

Experiment [2] addresses T2, AnkG 275-571 (AnkG R8-16) (UniProt O70511).
T2 sequence: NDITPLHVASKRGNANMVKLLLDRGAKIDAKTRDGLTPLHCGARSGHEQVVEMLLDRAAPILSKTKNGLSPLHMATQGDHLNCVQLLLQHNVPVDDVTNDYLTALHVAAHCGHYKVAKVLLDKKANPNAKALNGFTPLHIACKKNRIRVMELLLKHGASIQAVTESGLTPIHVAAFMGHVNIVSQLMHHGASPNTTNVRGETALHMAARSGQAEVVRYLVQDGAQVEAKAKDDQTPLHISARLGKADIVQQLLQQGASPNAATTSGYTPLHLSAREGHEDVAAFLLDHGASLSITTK
Kind of experiment: SEC. In general terms: SEC sorts molecules by how far they enter the pores of the column.

Experiment [3] concerns the target T1, AnkG ANK repeats (R1-24, residues 38-855). The experiment in a line: SEC.
Experiment [4] deals with T2, AnkG 275-571 (AnkG R8-16). The experiment in a line: crystal structure.
Experiment [5] concerns the target T1, AnkG ANK repeats (R1-24, residues 38-855). Kind of experiment: ITC. The source holds these as a separate data set.
A further experiment addresses GST-L1CAM 1206-1233 WT (UniProt Q05695). The experiment in a line: pull-down.

No constants are given. Whether binding was seen depends on the method and setting. Some binding calls cover weakened binding; strength is not graded here.

For “Nfasc 1198-1214 I1209Q (from UniProt P97685 1198-1214) (peptide)”, in experiment [1], the binding entry is on record as “binds”.
“Nfasc 1198-1214 F1208Q (from UniProt P97685 1198-1214) (peptide)”: the binding entry in experiment [1] was “binds”.
For the molecule “Nfasc 1198-1214 (from UniProt P97685 1198-1214) (peptide)”, the binding result in experiment [1] was “binds”.
Still for that read-out and setting: the entry for “Nfasc 1198-1214 D1205K (from UniProt P97685 1198-1214) (peptide)” is “binds”.
As to “Nfasc 1198-1214 D1205A (from UniProt P97685 1198-1214) (peptide)”, the binding result in experiment [1] is reported as “binds”.
Turning to SDDSLVDYGEGGEGQFNEDGSFIGQYTV (domain or fragment) [Nfasc ankyrin binding domain (ABD), residues 1187-1214], the binding entry in experiment [2], in experiment [3] and in experiment [4] was “binds” each time.

B1: full-length Nfasc cytoplasmic tail, residues 1132-1240 (domain or fragment, UniProt P97685 1132-1240)
chain: KRSRGGKYPVREKKDVPLGPEDPKEEDGSFDYSDEDNKPLQGSQTSLDGTIKQQESDDSLVDYGEGGEGQFNEDGSFIGQYTVRKDKEETEGNESSEATSPVNAIYSLA
As for B1, the binding result in experiment [5] was “binds”.

B2: AnkG ANK repeats (R1-24, residues 38-855) (domain or fragment, UniProt O70511 38-855)
chain: T1 sequence
For B2, the binding entry with GST-L1CAM 1206-1233 WT is reported as “binds”.

These data come from publication doi:10.1101/2022.04.27.489743 (bioRxiv, 2022).
